Test results from doi:10.1101/2022.10.05.510992.

B1: AP-1μ1 (protein, UniProt Q9BXS5 1-423)
chain: MSASAVYVLDLKGKVLICRNYRGDVDMSEVEHFMPILMEKEEEGMLSPILAHGGVRFMWIKHNNLYLVATSKKNACVSLVFSFLYKVVQVFSEYFKELEEESIRDNFVIIYELLDELMDFGYPQTTDSKILQEYITQEGHKLETGAPRPPATVTNAVSWRSEGIKYRKNEVFLDVIESVNLLVSANGNVLRSEIVGSIKMRVFLSGMPELRLGLNDKVLFDNTGRGKSKSVELEDVKFHQCVRLSRFENDRTISFIPPDGEFELMSYRLNTHVKPLIWIESVIEKHSHSRIEYMIKAKSQFKRRSTANNVEIHIPVPNDADSPKFKTTVGSVKWVPENSEIVWSIKSFPGGKEYLMRAHFGLPSVEAEDKEGKPPISVKFEIPYFTTSGIQVRYLKIIEKSGYQALPWVRYITQNGDYQLRTQ
B2: AP-1μ2 (protein, UniProt Q9Y6Q5 1-423)
chain: MSASAVFILDVKGKPLISRNYKGDVAMSKIEHFMPLLVQREEEGALAPLLSHGQVHFLWIKHSNLYLVATTSKNANASLVYSFLYKTIEVFCEYFKELEEESIRDNFVIVYELLDELMDFGFPQTTDSKILQEYITQQSNKLETGKSRVPPTVTNAVSWRSEGIKYKKNEVFIDVIESVNLLVNANGSVLLSEIVGTIKLKVFLSGMPELRLGLNDRVLFELTGRSKNKSVELEDVKFHQCVRLSRFDNDRTISFIPPDGDFELMSYRLSTQVKPLIWIESVIEKFSHSRVEIMVKAKGQFKKQSVANGVEISVPVPSDADSPRFKTSVGSAKYVPERNVVIWSIKSFPGGKEYLMRAHFGLPSVEKEEVEGRPPIGVKFEIPYFTVSGIQVRYMKIIEKSGYQALPWVRYITQSGDYQLRTS
B3: AP-1β (protein, UniProt Q10567 1-949)
chain: MTDSKYFTTTKKGEIFELKAELNSDKKEKKKEAVKKVIASMTVGKDVSALFPDVVNCMQTDNLELKKLVYLYLMNYAKSQPDMAIMAVNTFVKDCEDPNPLIRALAVRTMGCIRVDKITEYLCEPLRKCLKDEDPYVRKTAAVCVAKLHDINAQLVEDQGFLDTLKDLISDSNPMVVANAVAALSEIAESHPSSNLLDLNPQSINKLLTALNECTEWGQIFILDCLANYMPKDDREAQSICERVTPRLSHANSAVVLSAVKVLMKFMEMLSKDLDYYGTLLKKLAPPLVTLLSAEPELQYVALRNINLIVQKRPEILKHEMKVFFVKYNDPIYVKLEKLDIMIRLASQANIAQVLAELKEYATEVDVDFVRKAVRAIGRCAIKVEQSAERCVSTLLDLIQTKVNYVVQEAIVVIKDIFRKYPNKYESVIATLCENLDSLDEPEARAAMIWIVGEYAERIDNADELLESFLEGFHDESTQVQLQLLTAIVKLFLKKPTETQELVQQVLSLATQDSDNPDLRDRGYIYWRLLSTDPVAAKEVVLAEKPLISEETDLIEPTLLDELICYIGTLASVYHKPPSAFVEGGRGVVHKSLPPRTASSESAESPETAPTGAPPGEQPDVIPAQGDLLGDLLNLDLGPPVSGPPLATSSVQMGAVDLLGGGLDSLMGDEPEGIGGTNFVAPPTAAVPANLGAPIGSGLSDLFDLTSGVGTLSGSYVAPKAVWLPAMKAKGLEISGTFTRQVGSISMDLQLTNKALQVMTDFAIQFNRNSFGLAPAAPLQVHAPLSPNQTVEISLPLSTVGSVMKMEPLNNLQVAVKNNIDVFYFSTLYPLHILFVEDGKMDRQMFLATWKDIPNENEAQFQIRDCPLNAEAASSKLQSSNIFTVAKRNVEGQDMLYQSLKLTNGIWVLAELRIQPGNPSCTDLELSLKCRAPEVSQHVYQAYETILKN
B4: α-catenin-2 (protein, UniProt P26232 1-953)
chain: MTSATSPIILKWDPKSLEIRTLTVERLLEPLVTQVTTLVNTSNKGPSGKKKGRSKKAHVLAASVEQATQNFLEKGEQIAKESQDLKEELVAAVEDVRKQGETMRIASSEFADDPCSSVKRGTMVRAARALLSAVTRLLILADMADVMRLLSHLKIVEEALEAVKNATNEQDLANRFKEFGKEMVKLNYVAARRQQELKDPHCRDEMAAARGALKKNATMLYTASQAFLRHPDVAATRANRDYVFKQVQEAIAGISNAAQATSPTDEAKGHTGIGELAAALNEFDNKIILDPMTFSEARFRPSLEERLESIISGAALMADSSCTRDDRRERIVAECNAVRQALQDLLSEYMNNTGRKEKGDPLNIAIDKMTKKTRDLRRQLRKAVMDHISDSFLETNVPLLVLIEAAKSGNEKEVKEYAQVFREHANKLVEVANLACSISNNEEGVKLVRMAATQIDSLCPQVINAALTLAARPQSKVAQDNMDVFKDQWEKQVRVLTEAVDDITSVDDFLSVSENHILEDVNKCVIALQEGDVDTLDRTAGAIRGRAARVIHIINAEMENYEAGVYTEKVLEATKLLSETVMPRFAEQVEVAIEALSANVPQPFEENEFIDASRLVYDGVRDIRKAVLMIRTPEELEDDSDFEQEDYDVRSRTSVQTEDDQLIAGQSARAIMAQLPQEEKAKIAEQVEIFHQEKSKLDAEVAKWDDSGNDIIVLAKQMCMIMMEMTDFTRGKGPLKNTSDVINAAKKIAEAGSRMDKLARAVADQCPDSACKQDLLAYLQRIALYCHQLNICSKVKAEVQNLGGELIVSGTGVQSTFTTFYEVDCDVIDGGRASQLSTHLPTCAEGAPIGSGSSDSSMLDSATSLIQAAKNLMNAVVLTVKASYVASTKYQKVYGTAAVNSPVVSWKMKAPEKKPLVKREKPEEFQTRVRRGSQKKHISPVQALSEFKAMDSF
B5: p120 catenin (CTNND1) (protein, UniProt O60716 1-968)
chain: MDDSEVESTASILASVKEQEAQFEKLTRALEEERRHVSAQLERVRVSPQDANPLMANGTLTRRHQNGRFVGDADLERQKFSDLKLNGPQDHSHLLYSTIPRMQEPGQIVETYTEEDPEGAMSVVSVETSDDGTTRRTETTVKKVVKTVTTRTVQPVAMGPDGLPVDASSVSNNYIQTLGRDFRKNGNGGPGPYVGQAGTATLPRNFHYPPDGYSRHYEDGYPGGSDNYGSLSRVTRIEERYRPSMEGYRAPSRQDVYGPQPQVRVGGSSVDLHRFHPEPYGLEDDQRSMGYDDLDYGMMSDYGTARRTGTPSDPRRRLRSYEDMIGEEVPSDQYYWAPLAQHERGSLASLDSLRKGGPPPPNWRQPELPEVIAMLGFRLDAVKSNAAAYLQHLCYRNDKVKTDVRKLKGIPVLVGLLDHPKKEVHLGACGALKNISFGRDQDNKIAIKNCDGVPALVRLLRKARDMDLTEVITGTLWNLSSHDSIKMEIVDHALHALTDEVIIPHSGWEREPNEDCKPRHIEWESVLTNTAGCLRNVSSERSEARRKLRECDGLVDALIFIVQAEIGQKDSDSKLVENCVCLLRNLSYQVHREIPQAERYQEAAPNVANNTGPHAASCFGAKKGKDEWFSRGKKPIEDPANDTVDFPKRTSPARGYELLFQPEVVRIYISLLKESKTPAILEASAGAIQNLCAGRWTYGRYIRSALRQEKALSAIADLLTNEHERVVKAASGALRNLAVDARNKELIGKHAIPNLVKNLPGGQQNSSWNFSEDTVISILNTINEVIAENLEAAKKLRETQGIEKLVLINKSGNRSEKEVRAAALVLQTIWGYKELRKPLEKEGWKKSDFQVNLNNASRSQSSHSYDDSTLPLIDRNQKSDKKPDREEIQMSNMGSNTKSLDNNYSTPNERGDHNRTLDRSGDLGDMEPLKGTTPLMQDEGQESLEEELDVLVLDDEGGQVSYPSMQKI
B6: CEP135 (protein, UniProt Q66GS9 1-1140)
chain: MTTAVERKYINIRKRLDQLGYRQTLTVECLPLVEKLFSDLVHTTESLRQSKLSAVKAEKESANFDFVLEPYKLENARLSRENNELYLELMKLREHSDQHVKELKTSLKKCARETADLKFLNNQYAHKLKLLEKESKAKNERIQQLQEKNLHAVVQTPGGKKRSIAFRRQRMQIDEPVPPSEVSSYPVPQPDDPYIADLLQVADNRIQELQQEVHQLQEKLAMMESGVRDYSKQIELREREIERLSVALDGGRSPDVLSLESRNKTNEKLIAHLNIQVDFLQQANKDLEKRIRELMETKETVTSEVVNLSNKNEKLCQELTEIDQLAQQLERHKEEVLETADKELGEAKKEIKRKLSEMQDLEETMAKLQLELNLCQKEKERLSDELLVKSDLETVVHQLEQEKQRLSKKVESFAVTERQLTLEVERMRLEHGIKRRDRSPSRLDTFLKGIEEERDYYKKELERLQHIIQRRSCSTSYSAREKSSIFRTPEKGDYNSEIHQITRERDELQRMLERFEKYMEDIQSNVKLLTAERDKLSVLYNEAQEELSALRKESTQTTAPHNIVSLMEKEKELALSDLRRIMAEKEALREKLEHIEEVSLFGKSELEKTIEHLTCVNHQLESEKYELKSKVLIMKETIESLENKLKVQAQKFSHVAGDSSHQKTEVNSLRIVNEQLQRSVDDYQHRLSIKRGELESAQAQIKILEEKIDELNLKMTSQDEEAHVMKKTIGVIDKEKDFLQETVDEKTEKIANLQENLANKEKAVAQMKIMISECESSVNQLKETLVNRDREINSLRRQLDAAHKELDEVGRSREIAFKENRRLQDDLATMARENQEISLELEAAVQEKEEMKSRVHKYITEVSRWESLMAAKEKENQDLLDRFQMLHNRAEDWEVKAHQAEGESSSVRLELLSIDTERRHLRERVELLEKEIQEHINAHHAYESQISSMAKAMSRLEEELRHQEDEKATVLNDLSSLRELCIKLDSGKDIMTQQLNSKNLEFERVVVELENVKSESDLLKKQLSNERHTVKNLESLLATNRDKEFHSHLTSHEKDTEIQLLKEKLTLSESKLTSQSRENTMLRAKVAQLQTDYDALKRQISTERYERERAIQEMRRHGLATPPLSSTLRSPSHSPEHRNV
B7: intraflagellar transport protein 27 (IFT27), native in MCF-7 cells (protein, UniProt Q9BW83 1-186)
chain: MVKLAAKCILAGDPAVGKTALAQIFRSDGAHFQKSYTLTTGMDLVVKTVPVPDTGDSVELFIFDSAGKELFSEMLDKLWESPNVLCLVYDVTNEESFNNCSKWLEKARSQAPGISLPGVLVGNKTDLAGRRAVDSAEARAWALGQGLECFETSVKEMENFEAPFHCLAKQFHQLYREKVEVFRALA

biological target: NBCn1 C-terminal tail (bait of the pull-down with mass spectrometry); experiment: affinity purification with mass spectrometry

binding, binds:
B1, B2, B3, B4, B5, B6, B7

These are yes or no findings as the source states them, for the method shown. In cells and extracts the contact can be indirect. A yes stands for co-enrichment or nearness to the bait. Other partners may have been found. Tags and fused reporters may be left off the sequences shown.
